In patent US20120121508A1, “RADIOLABELED CGRP ANTAGONISTS” (Merck Sharp & Dohme Corp., priority 2009, published 2012):

Test system: CGRP receptor
Assay: PET CGRP receptor occupancy study in rhesus monkey brain
Type: in vivo
Settings: ±SE
Procedure: Baseline PET scans in rhesus monkey have confirmed the uptake and expected regional distribution of the PET tracer of [^11C]-Example 1 in the brain. […] In vivo occupancy studies were carried out with the compound of Example 1 to examine the utility of the PET tracer of [^11C]-Example 1 to establish a drug plasma level/CGRP receptor occupancy relationship. To establish steady plasma levels of drug, the compound of Example 1 was administered as an IV bolus plus constant infusion starting 60 minutes before the PET tracer of [^11C]-Example 1 injection; drug infusion was continued for the duration of the scan. Dynamic PET studies were acquired for 120-min following the PET tracer of [^11C]-Example 1 IV bolus administration. CGRP receptor availability was estimated using data-driven methods to describe the PET tracer of [^11C]-Example 1 plasma-brain kinetics. For each study, the PET tracer of [^11C]-Example 1 plasma concentration was obtained from the measurement of total radioactivity in arterial plasma with correction for the fraction of intact tracer as determined by HPLC analysis.
The absence of a reference region (devoid of CGRP receptor) requires the application of tracer kinetic modeling techniques using the PET tracer of [^11C]-Example 1 arterial plasma concentration in order to accurately quantify CGRP receptor occupancy in rhesus monkey. […]

CN1C[C@@](C)(c2cc(F)cc(F)c2)N(CC(=O)Nc2ccc3c(c2)C[C@@]2(C3)C(=O)Nc3ncccc32)C(=O)C12CCCC2 [Example 1, 2-[(8R)-8-(3,5-Difluorophenyl)-6,8-dimethyl-10-oxo-6,9-diazaspiro[4.5]dec-9-yl]-N-[(2R)-2′-oxo-1,1′,2′,3-tetrahydrospiro[indene-2,3′-pyrrolo[2,3-b]pyridin]-5-yl]acetamide]
Hill coefficient n of plasma level/occupancy relationship: 0.49±0.07
